Source: publication doi:10.1101/316000
These are yes or no findings as the source states them, for the method shown. In cells and extracts the contact can be indirect. Some results given as binding are weak or reduced against the parent protein; the word gives no strength.

Target: T1, TRAF6, endogenous in murine iTregs (mouse (endogenous in iTregs)) (UniProt P70196)
T1 sequence: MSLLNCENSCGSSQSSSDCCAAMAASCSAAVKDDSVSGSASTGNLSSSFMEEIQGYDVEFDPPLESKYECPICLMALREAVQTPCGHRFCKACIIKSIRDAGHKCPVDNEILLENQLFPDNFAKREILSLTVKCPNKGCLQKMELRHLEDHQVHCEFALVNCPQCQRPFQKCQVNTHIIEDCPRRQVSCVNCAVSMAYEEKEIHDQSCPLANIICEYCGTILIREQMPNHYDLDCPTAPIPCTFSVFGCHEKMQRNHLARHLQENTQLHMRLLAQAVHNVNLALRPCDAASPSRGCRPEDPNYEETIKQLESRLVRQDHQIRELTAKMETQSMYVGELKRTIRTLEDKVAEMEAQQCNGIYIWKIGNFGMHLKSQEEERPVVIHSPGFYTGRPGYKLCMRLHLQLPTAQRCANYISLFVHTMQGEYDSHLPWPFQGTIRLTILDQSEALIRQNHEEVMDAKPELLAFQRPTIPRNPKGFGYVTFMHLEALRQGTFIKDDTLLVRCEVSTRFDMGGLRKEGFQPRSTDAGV
Experiment: co-IP

B1: Foxp3, endogenous in murine iTregs (protein, UniProt Q99JB6 1-417)
chain: MPNPRPAKPMAPSLALGPSPGVLPSWKTAPKGSELLGTRGSGGPFQGRDLRSGAHTSSSLNPLPPSQLQLPTVPLVMVAPSGARLGPSPHLQALLQDRPHFMHQLSTVDAHAQTPVLQVRPLDNPAMISLPPPSAATGVFSLKARPGLPPGINVASLEWVSREPALLCTFPRSGTPRKDSNLLAAPQGSYPLLANGVCKWPGCEKVFEEPEEFLKHCQADHLLDEKGKAQCLLQREVVQSLEQQLELEKEKLGAMQAHLAGKMALAKAPSVASMDKSSCCIVATSTQGSVLPAWSAPREAPDGGLFAVRRHLWGSHGNSSFPEFFHNMDYFKYHNMRPPFTYATLIRWAILEAPERQRTLNEIYHWFTRMFAYFRNHPATWKNAIRHNLSLHKCFVRVESEKGAVWTVDEFEFRKKR
binding: binds
